Taken from: PubChem BioAssay AID1224826 (NIAID, 2016)

Screen: 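Genes that change LPS-induced Tnf promoter activity in mouse macrophages when knocked down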 (primary screen)
Cell system: RAW264.7 G9 macrophages from mouse bearing reporters for p65 (GFP) and the Tnf promoter (mCherry)
Knock-down reagent: siRNA pool against mouse genes, 100 nM
Time to read-out: 16 h of LPS stimulation, after 2 days of siRNA transfection
Challenge: bacterial lipopolysaccharide (Salmonella minnesota R595), 10 ng/ml
Detection: 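Nuclear mCherry signal of the Tnf promoter reporter measured by imaging after background removal, scaled to each plate median and turned into robust z-scores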
Scale: Tnf reporter robust z-score: higher = stronger Tnf promoter reporter signal after LPS; Tnf reporter intensity: higher = stronger Tnf promoter reporter signal
Rule for the call: 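a well counts as active at a score of -1.3 or below (Tlr4 knock-down control median) or above 3 (raised signal); controls and wells holding fewer than 50 cells are excluded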
Meaning of the calls: active = Tnf reporter clearly lowered or raised; inactive = no clear change in Tnf reporter
Shown is a random part of about 17,000 reagents tested. About 1,110 of them (6.6%) count as active. 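Active means lowered or raised reporter signal; replicate intensities are raw and not normalised per plate.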

gene symbol	Tnf reporter robust z-score	fewer than 50 cells in well	Tnf reporter intensity, replicate 1	Tnf reporter intensity, replicate 2	Outcome
Or8g51	-0.69	enough cells in well	64.7	148	inactive
Nr2e1	-0.15	enough cells in well	236	167	inactive
Anapc11	0.52	enough cells in well	165	237	inactive
Lnx2	1.07	enough cells in well	252	204	inactive
Hnrnpd	-1.9	enough cells in well	113	42.4	active
Plxna4		fewer than 50 cells per well; well left out of calls	141	6.4	inactive
Nsf	-0.24	enough cells in well	178	134	inactive
Rab32	-1.12	enough cells in well	203	120	inactive
Bglap		fewer than 50 cells per well; well left out of calls	8.97	288	inactive
Hoxa11	0.88	enough cells in well	296	255	inactive
Igbp1b	-0.11	enough cells in well	251	81.8	inactive
Or5l14	0.14	enough cells in well	205	151	inactive
Gask1a	2.16	enough cells in well	255	344	inactive
Fxyd6	-1.1	enough cells in well	165	79.3	inactive
Pld1	-0.23	enough cells in well	250	157	inactive
4933431E20Rik	-1.29	enough cells in well	103	80.3	inactive
D330005C11Rik	-0.75	enough cells in well	112	143	inactive
Hnf1a	-0.25	enough cells in well	219	119	inactive
Mmgt1	-0.05	enough cells in well	149	149	inactive
Hira	-0.62	enough cells in well	222	112	inactive
Tinag	1.19	enough cells in well	158	137	inactive
Ankrd9	-0.94	enough cells in well	136	132	inactive
Tpt1		fewer than 50 cells per well; well left out of calls	77.5	76.2	inactive
Nudt21	1.06	enough cells in well	300	187	inactive

3 successive entries from above, quoted:
gene symbol	Tnf reporter robust z-score	fewer than 50 cells in well	Tnf reporter intensity, replicate 1	Tnf reporter intensity, replicate 2	Outcome
Pld1	-0.23	enough cells in well	250	157	inactive
4933431E20Rik	-1.29	enough cells in well	103	80.3	inactive
D330005C11Rik	-0.75	enough cells in well	112	143	inactive
